# Laboratory results published in the supplement of paper PMC12889115.
# This is one part of the list. These are raw signals, not scaled to a control.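 First-pass screen: polymyxin B was added at a level that permeabilizes the Salmonella outer membrane while sparing the inner membrane. DMSO wells, with and without polymyxin B, defined maximum growth. Because plates differed from one another, each plate's data were ranked separately and the compounds with the lowest OD600 were carried forward as hits.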
# Tested on: Salmonella enterica serovar Typhimurium SL1344
# Experiment: bacterial growth OD600 after 18 h with compound and polymyxin B; higher = more bacterial growth (less inhibition)
# Conditions: 50 µM, Mueller-Hinton broth
compound,measurement,setting,value
CCN(Cc1ccccc1OC)CC1CCCN(CCc2cccc(OC)c2)C1 (stereo unspecified),bacterial growth OD600,polymyxin B 1 µg/mL,0.929
O=C(c1ccc(-c2ccccc2)cc1)C1CCCN(C(=O)CCc2ccncc2)C1 (stereo unspecified),bacterial growth OD600,polymyxin B 1 µg/mL,0.003
COc1ccc(CCCN2C(=O)O[C@@H]3CN(c4cc(N(C)C)ncn4)C[C@@H]32)cc1,bacterial growth OD600,polymyxin B 0.75 µg/mL,0.822
CCOC(=O)C1(CCCc2ccccc2)CCN(C(=O)c2nonc2C)CC1,bacterial growth OD600,polymyxin B 1 µg/mL,0.833
CN(Cc1ccco1)C(=O)c1cc(Cn2ccc3ccccc32)[nH]n1,bacterial growth OD600,polymyxin B 1 µg/mL,0.86
O=C(NCC1(c2ccccc2)CCOCC1)c1cc(CCc2ccccc2)no1,bacterial growth OD600,polymyxin B 0.75 µg/mL,0.91
Cc1c(CN2CCCC(Nc3cccc(F)c3)C2)cnn1C (stereo unspecified),bacterial growth OD600,polymyxin B 1 µg/mL,0.936
COc1ncccc1C(=O)N1CCCC(CCC(=O)N2CCN(Cc3ccccc3)CC2)C1 (stereo unspecified),bacterial growth OD600,polymyxin B 1 µg/mL,0.932
O=C(Nc1ccc(N2CCC(NCCC3=CCCCC3)CC2)cc1)c1ccc2c(c1)OCO2,bacterial growth OD600,polymyxin B 0.75 µg/mL,0.797
Cc1nonc1CC(=O)N1CCc2onc(-c3ccc(F)c(F)c3)c2C1,bacterial growth OD600,polymyxin B 0.75 µg/mL,0.952
COc1ccccc1CC(=O)Nc1cnn(CC(=O)N2CCC(OCc3ccccc3)CC2)c1,bacterial growth OD600,polymyxin B 0.75 µg/mL,0.771
CO[C@H]1[C@H](NC(=O)Cc2cccs2)c2ccccc2C12CCN(Cc1ccc(F)cc1F)CC2,bacterial growth OD600,polymyxin B 0.75 µg/mL,0.93
CCN(Cc1nccn1CC)CC1CCN(CCc2ccccc2C)CC1,bacterial growth OD600,polymyxin B 1 µg/mL,1.12
O=C(CCC(=O)N1CCCC(Nc2ccccc2)C1)c1ccc(F)cc1 (stereo unspecified),bacterial growth OD600,polymyxin B 1 µg/mL,0.749
COCCN(CCOC)c1ccc(-c2nc(-c3ccccc3F)no2)cn1,bacterial growth OD600,polymyxin B 1 µg/mL,0.825
O=C(Nc1ccnn1C1CCN(Cc2ccc(F)cc2)CC1)c1ccccc1Cl,bacterial growth OD600,polymyxin B 1 µg/mL,1.05
O=C(NC1CC(=O)N(CC2CCCCC2)C1)c1cccnc1 (stereo unspecified),bacterial growth OD600,polymyxin B 1 µg/mL,0.916
CCOC(=O)C1(Cc2cccc(Cl)c2)CCCN(C(=O)c2ccc(C)nc2)C1 (stereo unspecified),bacterial growth OD600,polymyxin B 1 µg/mL,0.742
O=C(c1ccc(Cl)cc1F)N1CCCC(Nc2cccc(F)c2)C1 (stereo unspecified),bacterial growth OD600,polymyxin B 1 µg/mL,0.611
Cc1c[nH]c(CN(C)C(=O)c2ccc3oc(CCCc4ccccc4)nc3c2)n1,bacterial growth OD600,polymyxin B 0.75 µg/mL,0.751
COCCNC(=O)c1ccc(OC)cc1OC1CCN(CCCC(F)(F)F)CC1,bacterial growth OD600,polymyxin B 1 µg/mL,1.04

# Given with tabs: 2 of the compounds above.
compound	measurement	setting	value
O=C(NCC1(c2ccccc2)CCOCC1)c1cc(CCc2ccccc2)no1	bacterial growth OD600	polymyxin B 0.75 µg/mL	0.91
Cc1c(CN2CCCC(Nc3cccc(F)c3)C2)cnn1C (stereo unspecified)	bacterial growth OD600	polymyxin B 1 µg/mL	0.936
